[ ]: non-standard residue; d: D form. The star is where a group is joined. Acm = CC(=O)NC*; Mpa = O=C(O)CCS
Test: general procedure: solution-phase peptide synthesis; azide method (isoamylnitrite/HCl); DCC/HOBt
Settings: acetate

Substance | crude HPLC purity (coupling step, HPLC, Lichrospher RP-18, UV detector at 220 nm) | step yield (coupling step) | final HPLC purity (oxidative folding step, UV 220 nm, one disulfide bridge, sequence written open)
Mpa(Acm)-Tyr-Phe-Gln-Asn-Cys(Acm)-Pro-D-Arg(HCl)-Gly-NH2 | 94.5% | 84.9% | 
Mpa-Tyr-Phe-Gln-Asn-Cys-Pro-D-Arg-Gly-NH2 |  |  | >98,5%
[Mpa](Acm)YFQNC(Acm)P-OH |  | 85% | 

Reference: US5985835A (priority 1997, dated 1999)
